The list shows only some results of the screen, not a fair sample: it gathers tests that were run many times, whatever their T/C, doses with no T/C, and many T/C values between a quarter and a half above the control. Other doses and runs of a compound stand elsewhere. T/C gives the treated animals as a percentage of the vehicle group. Some doses have a count of surviving animals in place of a T/C: the source files T/C as zero there, which appears to mark a toxic dose or a test without result, not a measured value. Some doses without a T/C left all or most animals alive at the check, yet need not have been tolerated: the source hardly ever lists a survival T/C far under the control, and the zero likely stands for such cases as well. Survivors were counted at the toxicity check, usually on the fifth day, unless a day is given; later deaths do not show. Schedules are NCI's codes, taken here to give the interval after Q, in days (D) or hours (H), and the number of doses after X. For survival time, this PubChem deposit counts one and a half times the control or more as active, and values a quarter to a half above the control carry no call in these data; other NCI protocols may use other cut-offs. Some entries were tested several times; the values are given in rising order. Some T/C values carry the count of animals alive at the toxicity check (mostly the fifth day); without a count, all were alive then.
Test system: BDF1 mice, P388 leukemia ip, median survival T/C
Assay: NCI In Vivo Anticancer Drug Screen. Data for tumor model P388 Leukemia (intraperitoneal) in B6D2F1 (BDF1) mice
Settings: T/C endpoint: median survival time, higher T/C = longer survival
Summary of the method: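 Vehicle-dosed animals serve as the reference; survival of compound-dosed, tumour-implanted mice is divided by it.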

[1] = dose: 25.0 mg/kg/injection, schedule: Q01DX009 (ip), vehicle: water
[2] = dose: 50.0 mg/kg/injection, schedule: Q01DX009 (ip), vehicle: water
[3] = dose: 100.0 mg/kg/injection, schedule: Q01DX009 (ip), vehicle: water
[4] = dose: 200.0 mg/kg/injection, schedule: Q01DX009 (ip), vehicle: water
[5] = dose: 400.0 mg/kg/injection, schedule: Q01DX009 (ip), vehicle: water
[6] = dose: 50.0 mg/kg/injection, schedule: Q01DX009 (ip), vehicle: saline with Tween-80
[7] = dose: 100.0 mg/kg/injection, schedule: Q01DX009 (ip), vehicle: saline
[8] = dose: 200.0 mg/kg/injection, schedule: Q04DX003 (ip), vehicle: saline
[9] = dose: 400.0 mg/kg/injection, schedule: Q04DX003 (ip), vehicle: Klucel (hydroxypropylcellulose) (HPC)
[10] = dose: 200.0 mg/kg/injection, schedule: Q04DX003 (ip), vehicle: Klucel (hydroxypropylcellulose) (HPC)
[11] = dose: 25.0 mg/kg/injection, schedule: Q01DX009 (ip), vehicle: Klucel (hydroxypropylcellulose) (HPC)
[12] = dose: 100.0 mg/kg/injection, schedule: Q01DX009 (ip), vehicle: Klucel (hydroxypropylcellulose) (HPC)
[13] = dose: 200.0 mg/kg/injection, schedule: Q01DX009 (ip), vehicle: saline with Tween-80

With COc1ccc(C=O)cc1OCc1ccccc1 the T/C [1] was 126 % of control, the survivor count [2] was 6 of 6 and the survivor count [3] was 6 of 6. The survivor count [4] was 6 of 6, the survivor count [5] was 6 of 6 and the survivor count (dose: 400.0 mg/kg/injection, schedule: Q04DX003 (ip), vehicle: water) was 3 of 6.
CC1CN1c1cc(O)c(N2CC2C)cc1O (stereo not drawn) was tested, and the T/C (dose: 0.88 mg/kg/injection, schedule: Q01DX009 (ip), vehicle: saline with Tween-80) was 145 % of control [5 of 6 alive], the T/C (dose: 2.2 mg/kg/injection, schedule: Q04DX003 (ip), vehicle: saline with Tween-80) was 136 % of control and the T/C (dose: 3.3 mg/kg/injection, schedule: Q04DX003 (ip), vehicle: saline with Tween-80) was 140 % of control. For the same compound, the T/C (dose: 7.5 mg/kg/injection, schedule: Q01DX009 (ip), vehicle: saline with Tween-80) was 135 % of control and the survivor count (dose: 20.0 mg/kg/injection, schedule: Q01DX009 (ip), vehicle: saline with Tween-80) was 6 of 6.
ClC1=C(Cl)C2(Cl)C3C4CC(C5OC45)C3C1(Cl)C2(Cl)Cl (stereo not drawn) was tested, and the survivor count (dose: 6.25 mg/kg/injection, schedule: Q01DX009 (ip), vehicle: suspension in saline) was 6 of 6, the survivor count (dose: 12.5 mg/kg/injection, schedule: Q01DX009 (ip), vehicle: suspension in saline) was 6 of 6 and the survivor count (dose: 25.0 mg/kg/injection, schedule: Q01DX009 (ip), vehicle: suspension in saline) was 6 of 6.
C/C(=C\Cl)CN(C)C was tested, and the survivor count (dose: 225.0 mg/kg/injection, schedule: Q04DX003 (ip), vehicle: saline) was 3 of 6 and the survivor count (dose: 335.0 mg/kg/injection, schedule: Q01DX009 (ip), vehicle: saline) was 6 of 6.
In the case of Cc1ccc(S(=O)(=O)c2ccc(Sc3cccc[n+]3[O-])c3nonc23)cc1, the T/C [6] is reported as 131 % of control.
In the case of c1ccc2c(c1)Cc1nc3ccccc3nc1-2, the T/C (dose: 12.5 mg/kg/injection, schedule: Q01DX009 (ip), vehicle: water) is reported as 126 % of control.
For Nc1ccn(CC(=O)c2ccco2)c(=O)n1, the survivor count [7] was 6 of 6, the survivor count (dose: 200.0 mg/kg/injection, schedule: Q01DX009 (ip), vehicle: saline) was 0 of 6 and the survivor count [8] was 2 of 6.
In the case of c1ccc(-c2nn(-c3ccccc3)[n+](-c3cccc4ccccc34)n2)cc1, the survivor count (dose: 8.0 mg/kg/injection, schedule: Q01DX009 (ip), vehicle: saline with Tween-80) is reported as 0 of 6.
For NS(=O)(=O)c1cc([N+](=O)[O-])ccc1Cl, the survivor count [9] was 3 of 6.
For CCCCCCCCCCCCCCCCSc1ccc(C)cc1, the survivor count (dose: 100.0 mg/kg/injection, schedule: Q04DX003 (ip), vehicle: Klucel (hydroxypropylcellulose) (HPC)) was 6 of 6, the survivor count [10] was 6 of 6 and the survivor count [9] was 6 of 6.
In the case of C[C@]12CCC(=O)C=C1CC[C@@H]1C2=CC[C@@]2(C)[C@H]1CC[C@]2(C)O, the survivor count (dose: 6.25 mg/kg/injection, schedule: Q01DX009 (ip), vehicle: Klucel (hydroxypropylcellulose) (HPC)) is reported as 6 of 6, the survivor count (dose: 12.5 mg/kg/injection, schedule: Q01DX009 (ip), vehicle: Klucel (hydroxypropylcellulose) (HPC)) is reported as 6 of 6 and the survivor count [11] is reported as 6 of 6. For the same compound, the survivor count [12] was 6 of 6 and the survivor count [9] was 3 of 6.
For CC1(C)N=C(N)N=C(N)N1c1ccc(CCCCc2ccc(S(=O)(=O)F)cc2)cc1, the T/C (dose: 8.0 mg/kg/injection, schedule: Q01DX009 (ip), vehicle: saline) was 145 % of control and the T/C (dose: 18.0 mg/kg/injection, schedule: Q01DX009 (ip), vehicle: saline) was 145 % of control.
With CCCCCC[N+]1(C)CC2C3C=CC(C3)C2C1 (stereo not drawn) the survivor count (dose: 115.0 mg/kg/injection, schedule: Q01DX009 (ip), vehicle: saline) was 0 of 6.
With CNC(=O)OCCN(CCOC(=O)NC)C(=O)N1c2ccccc2Sc2ccccc21 the T/C [6] was 142 % of control.
In the case of FC(F)(F)c1nc2cccc3c2n1CCC3, the survivor count (dose: 200.0 mg/kg/injection, schedule: Q04DX003 (ip), vehicle: saline with Tween-80) is reported as 6 of 6.
With CN1C(=O)Nc2ccc(Cl)cc2C1(O)c1ccccc1 (stereo not drawn) the survivor count [6] was 6 of 6 and the survivor count [13] was 6 of 6.
CC1=CC(c2ccc3c(c2)OCO3)c2c(c3ccccc3oc2=O)O1 (stereo not drawn) was tested, and the survivor count [1] was 6 of 6, the survivor count [2] was 5 of 6 and the survivor count [3] was 3 of 6. For the same compound, the survivor count [4] was 3 of 6 and the survivor count [5] was 2 of 6.
In the case of ClC(Cl)(Cl)c1ccc(C(Cl)(Cl)Cl)cc1, the T/C [11] is reported as 125 and 129 % of control, the T/C (dose: 50.0 mg/kg/injection, schedule: Q04DX003 (ip), vehicle: Klucel (hydroxypropylcellulose) (HPC)) is reported as 136 % of control and the T/C (dose: 75.0 mg/kg/injection, schedule: Q04DX003 (ip), vehicle: Klucel (hydroxypropylcellulose) (HPC)) is reported as 136 % of control. The survivor count [12] was 6 of 6.
For O=C1CCCC(=O)N1CCCCCCN1C(=O)CCCC1=O, the survivor count [13] was 3 of 6.
For Cc1cc(NCCCNCCCNc2cc(C)nc3cc(N)ccc23)c2ccc(N)cc2n1, the T/C (dose: 3.13 mg/kg/injection, schedule: Q01DX009 (ip), vehicle: other) was 125 % of control, the T/C (dose: 6.25 mg/kg/injection, schedule: Q01DX009 (ip), vehicle: other) was 131 % of control and the T/C (dose: 12.5 mg/kg/injection, schedule: Q01DX009 (ip), vehicle: other) was 142 % of control [4 of 6 alive]. The survivor count (dose: 25.0 mg/kg/injection, schedule: Q01DX009 (ip), vehicle: other) was 0 of 6 and the survivor count (dose: 50.0 mg/kg/injection, schedule: Q01DX009 (ip), vehicle: other) was 0 of 6.
Nc1ccc(C(=O)Nc2ccc(N(CCCl)CCCl)cc2)cc1 was tested, and the T/C (dose: 12.5 mg/kg/injection, schedule: Q04DX003 (ip), vehicle: saline) was 135 % of control, the T/C (dose: 50.0 mg/kg/injection, schedule: Q01DX009 (ip), vehicle: saline) was 137 % of control and the T/C [7] was 129 % of control [5 of 6 alive]. For the same compound, the survivor count (dose: 100.0 mg/kg/injection, schedule: Q04DX003 (ip), vehicle: saline) was 6 of 6, the survivor count (dose: 150.0 mg/kg/injection, schedule: Q01DX009 (ip), vehicle: saline) was 3 of 6 and the survivor count [8] was 4 of 6.
N#CC1(c2ccc(Cl)cc2)CC1 was tested, and the survivor count (dose: 400.0 mg/kg/injection, schedule: Q01DX009 (ip), vehicle: Klucel (hydroxypropylcellulose) (HPC)) was 4 of 6 and the survivor count [9] was 6 of 6.
With CN1c2c(nc(N)[nH]c2=O)NCC1CCNc1ccc(C(=O)NC(CCC(=O)O)C(=O)O)cc1 (stereo not drawn) the T/C (dose: 100.0 mg/kg/injection, schedule: Q01DX009 (ip), vehicle: other) was 127 % of control, the T/C (dose: 400.0 mg/kg/injection, schedule: Q01DX009 (ip), vehicle: other) was 127 % of control and the T/C (dose: 400.0 mg/kg/injection, schedule: Q01DX009 (ip), vehicle: saline) was 128 % of control.
With Nc1nc(SN=Nc2ccc(S(N)(=O)=O)cc2)c2[nH]cnc2n1 the survivor count (dose: 30.0 mg/kg/injection, schedule: Q01DX009 (ip), vehicle: saline with Tween-80) was 6 of 6.
In the case of CCCCCCCCCCCCCCCCCCNC(=S)N/N=C/c1ccc(Cl)cc1Cl, the survivor count (dose: 50.0 mg/kg/injection, schedule: Q01DX001 (ip), vehicle: Klucel (hydroxypropylcellulose) (HPC)) is reported as 6 of 6, the survivor count (dose: 100.0 mg/kg/injection, schedule: Q01DX001 (ip), vehicle: Klucel (hydroxypropylcellulose) (HPC)) is reported as 6 of 6 and the survivor count (dose: 200.0 mg/kg/injection, schedule: Q01DX001 (ip), vehicle: Klucel (hydroxypropylcellulose) (HPC)) is reported as 6 of 6. The survivor count [10] was 6 of 6.
For CCCOP(=S)(N1CC1(C)C)N1CC1(C)C (stereo not drawn), the T/C [6] was 145 % of control, the survivor count (dose: 150.0 mg/kg/injection, schedule: Q01DX009 (ip), vehicle: saline with Tween-80) was 3 of 6 and the survivor count [13] was 1 of 6. The survivor count (dose: 400.0 mg/kg/injection, schedule: Q04DX003 (ip), vehicle: saline with Tween-80) was 0 of 6.

Source: PubChem BioAssay AID328 (DTP/NCI, 2004)
